Data as given in PubChem BioAssay AID1224828 (NIAID, 2016)
Purpose: 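Knock-downs that increase or decrease LPS-induced p65 nuclear translocation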 (primary screen). System: mouse RAW264.7 G9 macrophage reporter cells (GFP-p65, Tnf promoter-mCherry). Knock-down reagent: siRNA pool against mouse genes, 100 nM. Duration: 2 days siRNA transfection, then 40 min LPS before fixation. Treatment: LPS (Salmonella minnesota R595) at 10 ng/ml. Detection: 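Imaged p65 nuclear translocation ratio, normalised to the plate median, converted to robust z-scores and averaged across two replicates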. Direction: p65 translocation robust z-score: higher = more nuclear NF-kappaB p65 after LPS than the plate median; nuclear/cytoplasmic p65 ratio: higher = more nuclear NF-kappaB p65. Rule for the call: 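Called active when z exceeds 3.3 or falls under -1.56 (median of Tlr4 controls), giving activity score of at least 50; no calls for control wells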. Calls: active = hit (p65 shift raised or lowered); inactive = no clear change.
This is a random part of about 17,000 reagents tested. In the full data, 762 (4.5%) are marked active. 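Active calls include both raised and lowered p65 entry, mostly lowered; wells with fewer than 50 cells lack a z-score.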 Raw values vary from plate to plate and are shown uncorrected. Reagents against one gene are numbered here.

target gene,reagent no.,p65 translocation robust z-score,"nuclear/cytoplasmic p65 ratio, rep 1","nuclear/cytoplasmic p65 ratio, rep 2",low cell count flag,outcome
Tppp3,1,,1.28,1.46,fewer than 50 cells per well; well left out of scoring,inactive
Narf,1,-0.3,1.27,1.2,enough cells to score,inactive
Smc2,1,,1.73,1.08,fewer than 50 cells per well; well left out of scoring,inactive
Usp22,1,-0.86,1.47,1.31,enough cells to score,inactive
Nisch,1,-0.17,1.66,1.53,enough cells to score,inactive
Brip1os,1,0.43,1.27,1.37,enough cells to score,inactive
Or4k47,1,-0.77,1.5,1.32,enough cells to score,inactive
Dhx15,1,-3.4,1.05,1.23,enough cells to score,active
Smarcb1,1,-0.11,1.56,1.51,enough cells to score,inactive
Or52n2,1,-0.15,1.39,1.25,enough cells to score,inactive
4931429L15Rik,1,,1.03,0.908,fewer than 50 cells per well; well left out of scoring,inactive
Pdia6,1,0.39,1.56,1.56,enough cells to score,inactive
Scamp3,1,2.69,2.15,1.65,enough cells to score,inactive
Onecut1,1,-0.33,1.44,1.34,enough cells to score,inactive
Tbck,1,0.6,1.51,1.61,enough cells to score,inactive
Tbck,2,1.56,1.62,1.58,enough cells to score,inactive
Cyp3a25,1,0.84,1.73,1.89,enough cells to score,inactive
Gpr156,1,1.01,1.63,1.75,enough cells to score,inactive
4930556L07Rik,1,,1.33,1.27,fewer than 50 cells per well; well left out of scoring,inactive
4930583K01Rik,1,,1.07,1.56,fewer than 50 cells per well; well left out of scoring,inactive
Klf5,1,0.47,1.52,1.46,enough cells to score,inactive
Acot2,1,,1.44,1.3,fewer than 50 cells per well; well left out of scoring,inactive
Ddx59,1,,1.48,1.59,fewer than 50 cells per well; well left out of scoring,inactive
Unc119b,1,1.68,1.35,1.76,enough cells to score,inactive
Gabra3,1,-0.76,1.15,1.3,enough cells to score,inactive
Il22b,1,-0.97,1.35,1.25,enough cells to score,inactive
Hadha,1,1.09,1.53,1.53,enough cells to score,inactive
Slc7a12,1,1.28,1.51,1.37,enough cells to score,inactive
Pak3,1,-1.25,1.53,1.22,enough cells to score,inactive
Acot12,1,-0.2,1.6,1.56,enough cells to score,inactive
Gnpnat1,1,-1.69,1.42,1.27,enough cells to score,active
Or14c41,1,,1.42,1.27,fewer than 50 cells per well; well left out of scoring,inactive
Fcf1,1,,1.67,1.8,fewer than 50 cells per well; well left out of scoring,inactive
Kl,1,1.02,1.73,1.54,enough cells to score,inactive
Spg21,1,-0.42,1.38,1.17,enough cells to score,inactive
Or3a1d,1,,1.54,1.28,fewer than 50 cells per well; well left out of scoring,inactive
Cadm1,1,0.13,1.56,1.27,enough cells to score,inactive
Txnip,1,,1.04,1.06,fewer than 50 cells per well; well left out of scoring,inactive
Unc5b,1,0.09,1.53,1.51,enough cells to score,inactive
Ccdc33,1,1.19,1.44,1.41,enough cells to score,inactive
